PMC2717102
Numbering of substitutions follows the chain as printed. Names and notes keep the numbering of the source. These are yes or no findings as the source states them, for the method shown. Binding can be weak; no strength is given.

Sequences of proteins named here, by UniProt entry; tags and fusion partners are left off. A change or cut given only in a name is not applied to a line headed by its entry.
UniProt P26718: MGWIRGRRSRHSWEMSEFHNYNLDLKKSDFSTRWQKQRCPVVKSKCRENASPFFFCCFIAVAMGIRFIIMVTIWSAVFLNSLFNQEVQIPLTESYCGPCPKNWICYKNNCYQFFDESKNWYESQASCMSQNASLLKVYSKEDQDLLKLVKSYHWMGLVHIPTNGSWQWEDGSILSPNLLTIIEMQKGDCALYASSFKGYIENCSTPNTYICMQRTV

B1: MICA mutant Q108W (ligand, UniProt Q29983 24-297)
chain: EPHSLRYNLTVLSWDGSVQSGFLTEVHLDGQPFLRCDRQKCRAKPQGQWAEDVLGNKTWDRETRDLTGNGKDLRMTLAHIKDQKEGLHSLQEIRVCEIHEDNSTRSSWHFYYDGELFLSQNLETKEWTMPQSSRAQTLAMNVRNFLKEDAMKTKTHYHAMHADCLQELRRYLKSGVVLRRTVPPMVNVTRSEASEGNITVTCRASGFYPWNITLSWRQDGVSLSHDTQQWGDVLPDGNGTYQTWVATRICQGEEQRFTCYMEHSGNHSTHPVPS
B2: MICA mutant K154P (ligand, UniProt Q29983 24-297)
chain: B1 chain with W108Q, K154P
B3: MICA mutant N69Q_Q108L_Q120I_K154S_T155D (ligand, UniProt Q29983 24-297)
chain: B1 chain with N69Q, W108L, Q120I, K154S, T155D
B4: MICA mutant K152V_Y157L (ligand, UniProt Q29983 24-297)
chain: B1 chain with W108Q, K152V, Y157L
B5: MICA mutant N69W_K152E (ligand, UniProt Q29983 24-297)
chain: B1 chain with N69W, W108Q, K152E
B6: MICA mutant N69W_K152E_K154D (ligand, UniProt Q29983 24-297)
chain: B1 chain with N69W, W108Q, K152E, K154D
B7: MICA mutant K152V_K154S_T155D_Y157L (ligand, UniProt Q29983 24-297)
chain: B1 chain with W108Q, K152V, K154S, T155D, Y157L
B8: MICA mutant N69Q_D72F_Q108L_K152V_Y157L (ligand, UniProt Q29983 24-297)
chain: B1 chain with N69Q, D72F, W108L, K152V, Y157L
B9: MICA mutant N69Q (ligand, UniProt Q29983 24-297)
chain: B1 chain with N69Q, W108Q
B10: wild-type MICA (ligand, UniProt Q29983 24-297)
chain: B1 chain with W108Q
B11: MICA mutant K152V_K154S_T155D (ligand, UniProt Q29983 24-297)
chain: B1 chain with W108Q, K152V, K154S, T155D
B12: MICA mutant N69Q_Q120I_K154S_T155D_Y157L (ligand, UniProt Q29983 24-297)
chain: B1 chain with N69Q, W108Q, Q120I, K154S, T155D, Y157L
B13: MICA mutant N69Q_D72F_Q108L (ligand, UniProt Q29983 24-297)
chain: B1 chain with N69Q, D72F, W108L
B14: MICA mutant K154D (ligand, UniProt Q29983 24-297)
chain: B1 chain with W108Q, K154D
B15: MICA mutant N69W_D72W_K152E (ligand, UniProt Q29983 24-297)
chain: B1 chain with N69W, D72W, W108Q, K152E
B16: MICA mutant N69W_D72F_K152E (ligand, UniProt Q29983 24-297)
chain: B1 chain with N69W, D72F, W108Q, K152E
B17: MICA mutant N69W (ligand, UniProt Q29983 24-297)
chain: B1 chain with N69W, W108Q
B18: MICA mutant Q120I (ligand, UniProt Q29983 24-297)
chain: B1 chain with W108Q, Q120I
B19: MICA mutant K152E_K154M (ligand, UniProt Q29983 24-297)
chain: B1 chain with W108Q, K152E, K154M
B20: MICA mutant K154S_T155D (ligand, UniProt Q29983 24-297)
chain: B1 chain with W108Q, K154S, T155D
B21: MICA mutant N69Q_Q120I_K154S_T155D (ligand, UniProt Q29983 24-297)
chain: B1 chain with N69Q, W108Q, Q120I, K154S, T155D
B22: MICA mutant N69Q_D72F (ligand, UniProt Q29983 24-297)
chain: B1 chain with N69Q, D72F, W108Q
B23: MICA mutant Q108L (ligand, UniProt Q29983 24-297)
chain: B1 chain with W108L
B24: MICA mutant D72W (ligand, UniProt Q29983 24-297)
chain: B1 chain with D72W, W108Q
B25: MICA mutant N69Q_K154D (ligand, UniProt Q29983 24-297)
chain: B1 chain with N69Q, W108Q, K154D
B26: MICA mutant N69Q_D72F_K154S_T155D (ligand, UniProt Q29983 24-297)
chain: B1 chain with N69Q, D72F, W108Q, K154S, T155D
B27: MICA mutant N69W_K152E_K154S (ligand, UniProt Q29983 24-297)
chain: B1 chain with N69W, W108Q, K152E, K154S

target: homodimeric NKG2D (UniProt P26718); assay: SPR; equilibrium binding analysis as used in the previous study [13]; fast kinetics precluded kinetic fits; both purified

Row | binding | Binder
1 | binds | B1
2 | binds | B2

target: homodimeric NKG2D (UniProt P26718); assay: SEC; small-zone analytical SEC, Superdex 75 10/300, 0.5 mL/min, HBS-EA (10 mM HEPES pH 7.4, 150 mM NaCl, 3 mM EDTA, 0.02% sodium azide), no urea; homodimeric NKG2D and MICA mixed and immediately injected; ++ separate ~60-kDa peak, + early shoulder to the ~30-kDa peak, - only the ~30-kDa peak; both purified

Row | binding | Binder
3 | binds | B3
4 | binds | B4
5 | binds | B5
6 | binds | B6
7 | binds | B7
8 | binds | B8
9 | binds | B9
10 | binds | B10
11 | binds | B13
12 | binds | B14
13 | binds | B15
14 | binds | B16
15 | binds | B17
16 | binds | B18
17 | binds | B19
18 | binds | B21
19 | binds | B22
20 | binds | B1
21 | binds | B23
22 | binds | B2
23 | binds | B25
24 | binds | B26
25 | binds | B27

Row | Binder | binding
26 | B11 | no binding (tested: 20 μmol each in 300 μL)
27 | B12 | no binding (tested: 20 μmol each in 300 μL)
28 | B20 | no binding (tested: 20 μmol each in 300 μL)
29 | B24 | no binding (tested: 20 μmol each in 300 μL)

target: homodimeric NKG2D (UniProt P26718); assay: SEC; small-zone analytical SEC as a1, column saturated with HBS-EA containing 1 M urea; both purified

Row | Binder | binding
30 | B6 | binds
31 | B10 | no binding (only with 1 M urea in the buffer)
32 | B1 | no binding (only with 1 M urea in the buffer)
33 | B2 | no binding (only with 1 M urea in the buffer)
